Assay results taken from publication PMC7298712.
No constants are given. Whether binding was seen depends on the method and setting. Binding seen in cells or lysates may run through a third protein. Some binding calls cover weakened binding; strength is not graded here.

The chains behind the UniProt entries cited, without tags or fusion partners.
UniProt Q68XM2: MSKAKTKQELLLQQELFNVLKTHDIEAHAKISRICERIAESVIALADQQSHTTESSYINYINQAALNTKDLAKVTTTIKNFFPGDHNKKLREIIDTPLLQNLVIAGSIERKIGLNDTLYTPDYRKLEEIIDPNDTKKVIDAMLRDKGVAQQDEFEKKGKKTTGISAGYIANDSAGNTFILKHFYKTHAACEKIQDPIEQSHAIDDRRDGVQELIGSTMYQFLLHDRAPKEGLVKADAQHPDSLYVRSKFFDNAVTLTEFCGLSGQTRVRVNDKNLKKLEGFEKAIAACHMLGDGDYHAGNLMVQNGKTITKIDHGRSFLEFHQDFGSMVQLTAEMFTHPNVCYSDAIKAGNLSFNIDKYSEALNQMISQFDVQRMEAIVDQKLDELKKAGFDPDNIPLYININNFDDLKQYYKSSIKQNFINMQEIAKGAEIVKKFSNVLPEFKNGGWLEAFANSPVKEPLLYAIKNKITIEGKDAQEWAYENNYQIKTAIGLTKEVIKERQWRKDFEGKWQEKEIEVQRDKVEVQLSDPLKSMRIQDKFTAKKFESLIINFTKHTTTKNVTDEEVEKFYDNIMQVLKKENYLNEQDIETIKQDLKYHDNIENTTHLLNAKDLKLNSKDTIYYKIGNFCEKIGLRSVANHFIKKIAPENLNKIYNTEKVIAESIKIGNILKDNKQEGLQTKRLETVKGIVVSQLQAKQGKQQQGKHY
UniProt Q14457: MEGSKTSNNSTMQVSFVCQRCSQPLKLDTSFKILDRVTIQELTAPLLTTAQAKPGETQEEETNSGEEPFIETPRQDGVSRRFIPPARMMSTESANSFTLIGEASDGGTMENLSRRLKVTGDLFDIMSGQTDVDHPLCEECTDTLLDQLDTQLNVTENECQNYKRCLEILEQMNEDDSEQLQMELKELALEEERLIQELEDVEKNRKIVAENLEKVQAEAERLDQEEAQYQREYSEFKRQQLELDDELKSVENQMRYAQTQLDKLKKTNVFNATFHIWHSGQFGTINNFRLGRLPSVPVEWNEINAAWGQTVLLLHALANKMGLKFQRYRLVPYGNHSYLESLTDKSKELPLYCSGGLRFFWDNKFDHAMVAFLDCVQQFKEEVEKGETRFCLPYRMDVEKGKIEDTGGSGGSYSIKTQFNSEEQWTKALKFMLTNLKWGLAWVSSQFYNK

How the values were obtained:
[1] = biological target: GFP-tagged codon-optimized full-length Risk1 WT (R. typhi) (UniProt Q68XM2); assay: co-IP
[2] = biological target: Beclin-1 (host, endogenously expressed) (human (endogenous in HeLa)) (UniProt Q14457); assay: co-IP

Substance | binding [1] | binding [2]
Beclin-1 (host, endogenously expressed) (from UniProt Q14457 1-450) | binds | 
Rickettsia intracellular secreted kinase-1 (Risk1) (from UniProt Q68XM2 1-707) |  | binds
